Data on 38 molecules can be found in PubChem BioAssay AID445 (National Center for Advancing Translational Sciences (NCATS), 2006).

Usually AC50 stands for the midpoint of the concentration-response curve, whichever way the signal moves.

The other results are listed elsewhere or left out. These are further read-outs of the screen, such as a control signal, another cell line or another target. No call is given for them. Compounds called inactive in the main read-out are mostly missing here. The note in brackets gives the kind of curve behind each potency; many fits are weak.

The experiment is described as follows: IkB Signaling. The note with it: ABC-DLBCL IkBa-CBG/CBR dual luciferase ratio (green luciferase fused to IkBa over red control in OCI-Ly3 lymphoma cells), 4 h; measured here: control luc red channel unless noted. Summed up:
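Curves were fitted separately to fusion (green), unfused (red) and ratio luminescence, then classed by r2, magnitude and activity. Cells: OCI-Ly3, 4 h compound plus doxycycline at 37C; 10 uM MG-132 defined full response.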
Turning to `O=C(CSc1ccccc1)NCc1ccc2c(c1)CCN2C(=O)c1ccccc1`, the AC50 was 12.6 µM [falling, partial curve]. In the case of `CN(Cc1ccccc1)C(=O)CCS(=O)(=O)c1ccc2c(c1)oc(=O)n2C` it was 25.1 µM [falling, single point]. As to `Fc1ccc(C(NCCc2ccccc2)c2nnc(-c3ccccc3Cl)o2)cc1` (stereo not drawn), the AC50 is 20 µM [falling, partial curve]. In the case of `Cc1ccc2nc(-c3cccc(NC(=O)c4ccc5c(c4)OCCO5)c3)oc2c1` it was 7.94 µM [falling, full curve, poor fit]; in that of `Cc1ccc(C)c(CN2CCCN(CC(=O)Nc3ccc(C)c(C)c3)S2(=O)=O)c1`, 10 µM [falling, partial curve]. The value for `Nc1nc(CSc2ncn(-c3ccccc3)n2)cs1` was 10 µM [falling, partial curve]; that for `CC[C@]1(O)C[C@H]2CN(CCc3c([nH]c4ccccc34)[C@](C(=O)OC)(c3cc4c(cc3OC)N(C)[C@@H]3[C@](O)(C(=O)OC)[C@H](OC(C)=O)[C@]5(CC)C=CCN6CC[C@]43[C@@H]65)C2)C1` was 39.8 nM [rising, full curve] [measured here: IkB-luc green channel]; that for `Cc1ccc(S(=O)(=O)N2CCCC2C(=O)OCc2ccco2)cc1` (stereo not drawn) was 31.6 µM [rising, single point] [measured here: IkB-luc green channel]. As to `COc1ccc(Cc2nc3ccc(C(=O)NCCc4ccc(OC)c(OC)c4)cc3o2)cc1`, the AC50 was 31.6 µM [falling, partial curve]. With `Cc1ccc(CNS(=O)(=O)c2cc(Br)cc3c2N(C(=O)C2CC2)CC3)cc1`, the AC50 is 3.16 µM [falling, partial curve]. In the case of `Cc1cccc2c(=O)cc(CSCC(=O)Nc3ccc(Cl)cc3)[nH]c12` it was 0.0631 µM [falling, full curve, poor fit]; in that of `Cc1ccc(CNC(=O)C(=O)NCC(c2ccco2)S(=O)(=O)c2ccc(C)cc2)cc1` (stereo not drawn), 10 µM [rising, partial curve]; in that of `Cc1ccc(Cn2c(=O)n(Cc3ccccc3)c(=O)c3c(C)c(C)sc32)cc1`, 10 µM [falling, partial curve].

For `CCCCOc1cccc(C(=O)N(Cc2ccc(Br)o2)C2CCS(=O)(=O)C2)c1` (stereo not drawn), the AC50 is 31.6 µM [falling, single point]. Consider `COc1cccc2c1C(=O)c1c(O)c3c(c(O)c1C2=O)C[C@](O)(C(C)=O)C[C@H]3O[C@@H]1C[C@H](N)[C@H](O)[C@H](C)O1`, for which the concentration at half-maximal activity (AC50) is 2 µM [falling, full curve]. The value for `COc1ccc2[nH]cc(CCNc3ncncc3-c3ccoc3)c2c1` was 3.16 µM [falling, partial curve]; that for `COc1ccc(S(=O)(=O)NCC(c2ccco2)N2CCN(c3ccc(F)cc3)CC2)cc1` (stereo not drawn) was 10 µM [falling, partial curve]; that for `CC(C)c1cnc2c(c1SCC(=O)c1ccccc1)c(=O)n(C)c(=O)n2C` was 39.8 µM [falling, single point].

Consider `COC(=O)c1ccn(-c2nc(-c3ccc(Cl)cc3)cc(C(F)(F)F)n2)n1`, for which the AC50 was 20 µM [falling, partial curve]. Turning to `Cc1ccc(C(=O)Nc2sc3c(c2C(=O)O)CCCCC3)o1`, the AC50 is 0.00794 µM [falling, full curve]. The value for `COc1ccc(-c2nc(C)c(CCNS(=O)(=O)c3ccc(F)cc3)s2)cc1OC` was 0.0794 µM [falling, full curve, poor fit]. For `O=C(O)c1ccc(Oc2nc3ccccc3s2)cc1`, the AC50 was 3.16 µM [falling, partial curve].

As for `CC(C)c1ccc(CN(Cc2ccco2)c2cnc(S(C)(=O)=O)nc2C(=O)Nc2ccccc2)cc1`, the AC50 was 5.01 µM [falling, full curve, poor fit]. In the case of `CCn1c2ccccc2c2cc(NC(=O)CCCN3C(=O)CCC3=O)ccc21` it was 3.98 µM [falling, full curve]; in that of `Cc1oc(-c2ccc(Cl)cc2)nc1CN1CCCC(C(=O)NCCc2ccccc2)C1` (stereo not drawn), 25.1 µM [falling, partial curve]. For the molecule `CC(C)(C)c1cn(-c2ccccc2)c(=S)[nH]1`, the AC50 is 3.98 µM [falling, partial curve]. On to `CC(=O)c1ccc(NC(=O)CSc2c(C(C)C)cnc3c2c(=O)n(C)c(=O)n3C)cc1`, for which the AC50 was 39.8 µM [falling, single point]. As for `COC(=O)c1c(-c2cccs2)csc1NC(=O)c1ccc(C)cc1`, the AC50 was 10 µM [rising, partial curve, poor fit]. In the case of `Cc1cc(NC(=O)c2cc(-c3ccc(Cl)c(Cl)c3)on2)n(-c2ccccc2)n1` it was 39.8 µM [falling, single point]; in that of `CCOc1ccc(CNC(=O)C2CCN(C(=O)N3CC(CC)Oc4ccc(C)cc43)CC2)cc1OC` (stereo not drawn), 10 µM [falling, partial curve]; in that of `COc1ccccc1NC(=O)Cn1c(=O)n(CC2CCC(C(=O)NCCc3ccccc3)CC2)c(=O)c2ccccc21` (stereo not drawn), 12.6 µM [falling, partial curve]. For `Cc1cc(Br)ccc1NC(=O)c1c(C)oc2ncnc(N3CCCCC3)c12`, the AC50 is 25.1 µM [falling, partial curve]. In the case of `CCN(CC)CCOC(=O)c1ccc(NC(=O)c2cc3cc(OC)ccc3oc2=O)cc1` it was 15.8 µM [falling, single point]; in that of `COCCNC(=O)CN1C(=O)COc2ccc(S(=O)(=O)N3CCCC3)cc21`, 6.31 µM [falling, full curve]; in that of `CCc1ccc(NC(=O)Cn2c(=O)n(CCCC(=O)NCCc3ccc(OC)c(OC)c3)c(=O)c3ccccc32)cc1`, 12.6 µM [falling, partial curve]. For `COc1ccc(OC)c(N=c2oc3cc(O)ccc3cc2C(N)=O)c1`, the AC50 was 5.01 µM [falling, partial curve].

For the molecule `CC(=O)NC12CC3CC(C1)CC(C(=O)OCC(=O)c1ccc4c(c1)OCCO4)(C3)C2`, the AC50 was 25.1 µM [falling, partial curve]. In the case of `CCOc1ccc(Sc2cc(C(=O)NCc3ccccc3Cl)c3ccccc3n2)cc1` it was 3.98 µM [falling, full curve].
